In publication PMC2656613 one finds binding data, which are given here for one substance.

Chains of the proteins cited; added tags and fusions are not shown.
UniProt O08586: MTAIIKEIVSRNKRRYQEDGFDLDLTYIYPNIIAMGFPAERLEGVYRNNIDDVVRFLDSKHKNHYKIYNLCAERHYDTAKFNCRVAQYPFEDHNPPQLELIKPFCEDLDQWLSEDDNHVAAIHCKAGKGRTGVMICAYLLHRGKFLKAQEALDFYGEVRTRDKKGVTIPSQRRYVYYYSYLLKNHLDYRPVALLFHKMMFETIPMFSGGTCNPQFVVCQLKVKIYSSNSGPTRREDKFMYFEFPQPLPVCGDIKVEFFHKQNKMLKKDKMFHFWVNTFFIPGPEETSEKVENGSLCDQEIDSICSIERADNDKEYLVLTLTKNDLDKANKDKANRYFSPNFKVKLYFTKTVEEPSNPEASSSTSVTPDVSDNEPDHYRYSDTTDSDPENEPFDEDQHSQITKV

No constants are given. Whether binding was seen depends on the method and setting. Binding seen in cells or lysates may run through a third protein. Some entries that bind do so weakly or less than the wild type.

For this experiment, the target named is T1, thioredoxin (Trx1) (mouse (endogenous in MMTV-PyVT mammary tumor cells)) (UniProt P10639).
T1 sequence: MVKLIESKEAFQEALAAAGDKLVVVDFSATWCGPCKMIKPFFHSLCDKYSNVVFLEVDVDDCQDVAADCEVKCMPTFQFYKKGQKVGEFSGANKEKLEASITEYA
Kind of experiment: co-IP; 500 µg lysate in RIPA buffer, pre-cleared with rabbit IgG and protein G-Sepharose, 2 µg anti-Trx1 or anti-PTEN antibody overnight at 4°C, protein G-Sepharose, Western blotting; lysates from PyVT(+/−)/ADN(+/+) and PyVT(+/−)/ADN(+/−) tumors. (In western blotting, separated proteins are transferred to a membrane and probed.)

For the substance “phosphatase and tensin homolog (PTEN) (from UniProt O08586 1-403)”, the binding result is “binds”.
